Values quoted from earlier work, collected in paper PMC10499415 (Clinical and Translational Science, 2023).

Assays:
[1] = patients with cancer and healthy subjects; cited from earlier work
[2] = healthy male adults; cited from earlier work

SMILES: C=CC(=O)N1CC[C@H](n2nc(C#Cc3cc(OC)cc(OC)c3)c3c(N)ncnc32)C1 [futibatinib, Futibatinib]
- time to maximum plasma concentration (T max) [1]: ~ 2 h
- radioactivity recovered in feces [2]: More than 90%
